Consider 38 compounds from PubChem BioAssay AID2685 (National Center for Advancing Translational Sciences (NCATS), 2010).

The experiment in a line: qHTS Assay for Lipid Storage Modulators in Drosophila S3 Cells.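 On cell number change: cells counted by Cell Tracker Red CMTPX staining in the red channel.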 To be noted: BODIPY lipid droplet fluorescence, 18-24 h; for cell number change: measured here: cell count max response, cells fed with added oleic acid. In a few lines:
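Drosophila S3 cells loaded with oleic acid (400 uM, as added) and compounds at several concentrations; lipid droplets imaged by 488-nm laser-scanning cytometry, 500–530 nm intensity and object ratio to cell channel. Percent activity normalized to 20 uM Triacsin C.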
For orientation: qHTS replaces the single test concentration by a dilution series.

Where [1] appears, read: measured here: cell number channel AC50, cells fed with added oleic acid.
Where [2] appears, read: measured here: lipid fluorescence (Fed channel) AC50, cells fed with added oleic acid.

Some of the results follow. These are further read-outs of the screen, such as a control signal, another cell line or another target. No call is given for them. The list favours compounds with an active or inconclusive main result. The note in brackets gives the kind of curve behind each potency; many fits are weak.

Regarding `CC(C)CN(C(=O)CSc1nnnn1-c1ccccc1)c1c(N)n(CC(C)C)c(=O)[nH]c1=O`, the concentration at half-maximal activity (AC50) under setting [1] is 1.64 µM [rising, single point].
For `Cc1ccc(-n2ncc3ccccc3c2=O)cc1Cl`, the AC50 under setting [1] was 3.66 µM [rising, single point].
As to `CNc1ccccc1C(C)(C)c1cc(-c2cc(C)cc(C)c2)no1`, the cell number change is -9.86%. Besides, the half-maximal activity concentration (AC50) under setting [2] is 29.1 µM [falling, single point].
For `CCCc1nc2sc3ccccc3c(=O)c2c(=O)n1Cc1ccco1`, the cell number change is -18.2%. Moreover, the concentration at half-maximal activity (AC50) under setting [2] was 0.517 µM [falling, full curve].
For the compound `S=c1[nH]nc(COc2ccccc2)n1C1CCCCC1`, the AC50 under setting [1] is 0.731 µM [rising, single point].
Turning to `Cc1cccc(NC(=S)N(CCc2nc3cc(C)c(C)cc3[nH]2)Cc2cccnc2)c1`, the cell number change is -20.3%. Under setting [1], the AC50 was 0.146 µM [falling, full curve, poor fit].
As for `CC(=O)Nc1cccc(NC(=O)CSc2nnc3ccc(-c4ccncc4)nn23)c1`, the cell number change was -14%.
In the case of `Cc1ccc(NC(=O)C(=O)NCCN2CCN(S(C)(=O)=O)CC2)cc1`, the cell number change came out at 33.6%. The half-maximal activity concentration (AC50) under setting [2] is 0.082 µM [falling, full curve, poor fit].
Consider `C/C(=C\c1ccccc1)C(=O)N1CCN(Cc2ccc3c(c2)OCO3)CC1`, for which the cell number change was determined as 6.04%. Moreover, the half-maximal activity concentration (AC50) under setting [2] was 29.1 µM [falling, single point].
On to `O=c1cc(CN2CCN(c3ccc(F)cc3)CC2)nc2sccn12`, for which the cell number change turned out to be 130%.
Regarding `Cc1cc(=O)n2nc(N3CCC(C(=O)NCC(C)c4ccccc4)CC3)sc2n1` (configuration not stated), the cell number change turned out to be 11.5%.
In the case of `COc1ccc(CN2C(=O)c3cccnc3C2=O)cc1S(=O)(=O)NC1CCCCC1`, the cell number change was -39.4%. Also, the AC50 under setting [1] is 29.1 µM [falling, single point].
For the compound `Cc1ccc(C(=O)NC2CCCN(c3ccc(C(F)(F)F)cn3)C2)cn1` (configuration not stated), the cell number change is 30.8%. Further, the AC50 under setting [1] is 20 µM [rising, partial curve, poor fit]. The AC50 under setting [2] is 12.6 µM [rising, partial curve].
For the compound `CCC(c1c(C)[nH]oc1=O)c1c(C)[nH]oc1=O`, the cell number change is -15.6%. The AC50 under setting [2] was 0.92 µM [falling, full curve, poor fit].
As to `CCC(C)N1C(=O)c2ccccc2C1C(=O)NC1CCCCCC1` (configuration not stated), the cell number change is -55.4%. For the same compound, the half-maximal activity concentration (AC50) under setting [1] is 10.3 µM [falling, partial curve, poor fit]. In addition, under setting [2], the AC50 is 10.3 µM [falling, partial curve].
For `Cc1cccn2c(=O)c3cc(C(=O)N4CCOCC4)n(C)c3nc12`, the cell number change worked out at 1.3%. In addition, under setting [2], the AC50 was 0.116 µM [falling, full curve, poor fit].
Consider `Cc1ccc(CCC(=O)Nc2ccc(C#N)cc2)o1`, for which the cell number change is 1.77%. Under setting [2], the AC50 is 6.51 µM [rising, single point].
`C=CCC1=C/C(=C\c2c(N)n3nc(CC(=O)N4CCCC4)sc3nc2=O)C=C(OC)C1=O`: the cell number change is -60.4%. Moreover, the AC50 under setting [1] was 29.1 µM [falling, partial curve, poor fit]. The AC50 under setting [2] was 5.17 µM [falling, single point].
`O=C(CN1C(=O)c2cccnc2Oc2ccc(Cl)cc21)NC1CCCCCC1`: the cell number change was 1.49%. Also, under setting [1], the concentration at half-maximal activity (AC50) was 0.0326 µM [falling, full curve, poor fit]. Further, under setting [2], the AC50 is 0.092 µM [falling, full curve].
For `CCn1c(SCC(=O)N=Nc2c(O)[nH]c3ccccc23)nnc1-c1ccc(C(C)(C)C)cc1`, the cell number change was 1.81%.
On to `CCOc1ccc(NS(=O)(=O)c2ccc(C(=O)NC3CCN(Cc4ccccc4)CC3)cc2)cc1`, for which the cell number change is 27.3%. In addition, the AC50 under setting [2] is 13 µM [rising, partial curve].
Take `CCCS(=O)(=O)Nc1cccc(-c2nc3cccnc3s2)c1`: the cell number change worked out at 21.5%. The concentration at half-maximal activity (AC50) under setting [2] was 25.9 µM [rising, single point].
Consider `COc1c(Cl)cc(C(=O)Nc2ccc(Cl)cn2)cc1Cl`, for which the cell number change was -61.5%. Also, the AC50 under setting [1] was 7.31 µM [falling, partial curve, poor fit].
Regarding `CCC(=O)Nc1ccc(NC(=O)c2ccccc2)nc1`, the cell number change is -28.1%. For the same compound, under setting [2], the AC50 was 6.51 µM [falling, single point].
As for `CN(C)S(=O)(=O)c1ccc(Cl)c(NC(=O)COC(=O)CNC(=O)c2ccco2)c1`, the cell number change was 8.25%.
In the case of `COc1ccccc1CCN=C(N)NS(=O)(=O)c1ccc(F)cc1`, the cell number change was determined as 0.875%. Besides, the AC50 under setting [1] was 6.51 µM [rising, single point].
In the case of `C=CCNC(=O)/C(=C\c1ccc(Br)cc1)NC(=O)c1ccccc1OC`, the cell number change was determined as 44.9%. The half-maximal activity concentration (AC50) under setting [1] is 29.1 µM [rising, single point].
Regarding `O=C(NC1CC2CCC(C1)N2Cc1nnnn1Cc1ccco1)NC12CC3CC(CC(C3)C1)C2` (configuration not stated), the cell number change is -13.6%. The concentration at half-maximal activity (AC50) under setting [1] is 0.651 µM [falling, full curve, poor fit].
As to `CCCc1nc2oc3c(NCC(C)O)ncnc3c2c2c1CCCC2` (configuration not stated), the cell number change is 6.4%. Also, under setting [2], the concentration at half-maximal activity (AC50) was 6.51 µM [rising, partial curve].
Consider `O=C(CSc1ncnc2c1cnn2-c1cccc(Cl)c1)NCC1CCCO1` (configuration not stated), for which the cell number change is -12.1%. Besides, the AC50 under setting [2] was 15.8 µM [falling, single point].
Turning to `O=C(COc1ccc([N+](=O)[O-])cc1)Nc1ccc(C(=O)NCc2cccnc2)cc1`, the cell number change stood at 4.31%. For the same compound, the concentration at half-maximal activity (AC50) under setting [2] was 0.326 µM [rising, full curve].
On to `O=C(CCN1CCN(c2ccccc2)CC1)NNC(=O)Cc1ccccc1Cl`, for which the cell number change came to 24.6%. Further, the AC50 under setting [2] was 0.651 µM [rising, partial curve, poor fit].
In the case of `C/C(Cn1cnc([N+](=O)[O-])n1)=N/NC(=O)COc1ccccc1Cl`, the cell number change is 92.3%. The concentration at half-maximal activity (AC50) under setting [1] is 29.1 µM [rising, single point]. In addition, the AC50 under setting [2] was 6.51 µM [rising, partial curve].
Take `CCN(CC)S(=O)(=O)c1ccc(C(=O)NNc2nc(-c3ccccc3)c3cc(Br)ccc3n2)cc1`: the cell number change was determined as 8.16%.
Consider `N#Cc1c(/N=C/c2ccc(-c3ccccc3C(=O)O)o2)sc2c1CCCC2`, for which the cell number change is 22.1%. The half-maximal activity concentration (AC50) under setting [2] is 13 µM [rising, partial curve, poor fit].
Turning to `CCN(CC)C(=S)SC1CCCCN(C(=O)c2ccc(F)cc2)C1=O` (configuration not stated), the cell number change came out at 37.8%. For the same compound, the AC50 under setting [1] was 29.1 µM [rising, single point]. Moreover, the AC50 under setting [2] was 32.6 µM [rising, partial curve, poor fit].
In the case of `COc1ccc(C(=O)N(CCc2ccccc2)Cc2ccccc2)cc1S(=O)(=O)N1CCOCC1`, the cell number change was -26.2%. In addition, under setting [2], the AC50 was 2.91 µM [falling, partial curve, poor fit].
As for `CSc1cccc(NC(=O)CCCNC(=O)c2ccc(Cl)cc2)c1`, the cell number change was 4.7%.

The AC50 is the concentration at which the activity in the assay is half-maximal.
